Taken from: PubChem BioAssay AID686943 (Drosophila RNAi Screening Center, 2013)
The deposit covers about 23,000 reagents; this is an unselected part of those that have a named target and a result. 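Extra replicates exist only for a retested subset of genes; insulin dose and duration not given; both raised and lowered dpERK matter.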 Reagents against one gene are numbered here. Names joined by + are all predicted targets of the reagent. Not all columns of the deposit are shown. Not stated in the record: the amount of reagent, the time to read-out.

Screen: 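Knockdowns that increase or decrease active ERK after insulin receptor stimulation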 (primary screen)
Cells: Drosophila S2R+ haemocyte-like cells expressing YFP-tagged ERK (Rolled)
Knock-down reagent: long dsRNA against Drosophila genes
Treatment: insulin stimulation versus unstimulated cells; dose and duration not given
Detection: 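Antibody staining for doubly phosphorylated ERK divided by ERK-YFP signal, as plate z-scores, in insulin-treated and untreated cells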
Reading the numbers: replicate 1, z-score of dpERK with insulin and replicate 2, z-score of dpERK with insulin: higher = more active ERK per ERK-YFP after insulin

{"predicted target":"g (garnet)","dsRNA no.":1,"replicate 1, z-score of dpERK with insulin":-0.89,"replicate 2, z-score of dpERK with insulin":0.01}
{"predicted target":"lncRNA:CR32658 (long non-coding RNA:CR32658)","dsRNA no.":1,"replicate 1, z-score of dpERK with insulin":-0.02,"replicate 2, z-score of dpERK with insulin":0.53}
{"predicted target":"CG14352","dsRNA no.":1,"replicate 1, z-score of dpERK with insulin":0.37,"replicate 2, z-score of dpERK with insulin":0.66}
{"predicted target":"Zw (Zwischenferment)","dsRNA no.":1,"replicate 1, z-score of dpERK with insulin":-1.09,"replicate 2, z-score of dpERK with insulin":1.03}
{"predicted target":"CG6709 + Hez","dsRNA no.":1,"replicate 1, z-score of dpERK with insulin":0.87,"replicate 2, z-score of dpERK with insulin":0.06}
{"predicted target":"CG6709 + Hez","dsRNA no.":2,"replicate 1, z-score of dpERK with insulin":0.64,"replicate 2, z-score of dpERK with insulin":0.46}
{"predicted target":"Nsun5 (Nop2/Sun-like domain containing protein 5)","dsRNA no.":1,"replicate 1, z-score of dpERK with insulin":-0.25,"replicate 2, z-score of dpERK with insulin":-0.06}
{"predicted target":"CG6012","dsRNA no.":1,"replicate 1, z-score of dpERK with insulin":0.01,"replicate 2, z-score of dpERK with insulin":0.27}
{"predicted target":"Rbsn-5 (Rabenosyn-5)","dsRNA no.":1,"replicate 1, z-score of dpERK with insulin":-0.48,"replicate 2, z-score of dpERK with insulin":-0.36}
{"predicted target":"kin17","dsRNA no.":1,"replicate 1, z-score of dpERK with insulin":0.82,"replicate 2, z-score of dpERK with insulin":-0.87}
{"predicted target":"Sema2a (Semaphorin 2a)","dsRNA no.":1,"replicate 1, z-score of dpERK with insulin":-0.27,"replicate 2, z-score of dpERK with insulin":-0.44}
{"predicted target":"Sara (Smad anchor for receptor activation)","dsRNA no.":1,"replicate 1, z-score of dpERK with insulin":-0.22,"replicate 2, z-score of dpERK with insulin":0.33}
{"predicted target":"msb1l","dsRNA no.":1,"replicate 1, z-score of dpERK with insulin":0.23,"replicate 2, z-score of dpERK with insulin":0.96}
{"predicted target":"CG31949","dsRNA no.":1,"replicate 1, z-score of dpERK with insulin":0.1,"replicate 2, z-score of dpERK with insulin":1.14}
{"predicted target":"disco-r (disco-related)","dsRNA no.":1,"replicate 1, z-score of dpERK with insulin":-0.09,"replicate 2, z-score of dpERK with insulin":-0.18}
{"predicted target":"disco-r (disco-related)","dsRNA no.":2,"replicate 1, z-score of dpERK with insulin":0.67,"replicate 2, z-score of dpERK with insulin":-0.67}
{"predicted target":"CG30159","dsRNA no.":1,"replicate 1, z-score of dpERK with insulin":0.22,"replicate 2, z-score of dpERK with insulin":-0.27}
{"predicted target":"Opa1 (Optic atrophy 1)","dsRNA no.":1,"replicate 1, z-score of dpERK with insulin":0.1,"replicate 2, z-score of dpERK with insulin":0.59}
{"predicted target":"CG11454","dsRNA no.":1,"replicate 1, z-score of dpERK with insulin":0.03,"replicate 2, z-score of dpERK with insulin":-1.78}
{"predicted target":"Pif2 (PFTAIRE-interacting factor 2)","dsRNA no.":1,"replicate 1, z-score of dpERK with insulin":0.54,"replicate 2, z-score of dpERK with insulin":0.14}
{"predicted target":"Polr2L (RNA polymerase II, I and III subunit L)","dsRNA no.":1,"replicate 1, z-score of dpERK with insulin":5.41,"replicate 2, z-score of dpERK with insulin":2.56}
